PubChem BioAssay AID504764 – Drosophila RNAi Screening Center | 2011
The screen tested about 22,000 reagents; this is a random part of those with a known target gene and a result. In the full data, 403 (1.9%) are marked active. 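Unnormalised raw counts per well; ratio z-scores behind the hit calls and whether each hit raises or lowers signal are not deposited.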 A plus sign joins genes that one reagent is predicted to hit. The record does not give: the amount of reagent.

Purpose: 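Genome-wide screen for regulators of Notch-driven gene expression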 (primary screen)
Cell system: Drosophila Kc167 cells
Reagent: long dsRNA against Drosophila genes
Timing: about 5 days (4 days dsRNA, then 24 h after transfection)
Treatment: transfection of constitutively active membrane-tethered Notch lacking the extracellular domain, read 24 h later
Read-out: 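Firefly luciferase from an E(spl)m3 reporter with active Notch, plus control-promoter and uninduced reporter wells for normalisation; unnormalised counts, duplicate wells a and b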
Reading the numbers: induced reporter light, run 1, well a and induced reporter light, run 1, well b: higher = more light from the Notch target reporter with active Notch; control promoter light, run 1, well a and control promoter light, run 1, well b: higher = more light from the viral control promoter (cell number, transfection, viability); uninduced reporter light, run 1, well a: higher = more light from the Notch target reporter without active Notch
Hit rule: 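Wells with low control signal or poorly matching duplicates excluded; duplicates averaged; per source plate, z beyond ±2 for induced/control log2 ratio or beyond ±1.8 for induced/uninduced marks a hit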
Calls: active = modifier hit (raised or lowered Notch signal); inactive = not a hit

target gene	dsRNA	induced reporter light, run 1, well a	induced reporter light, run 1, well b	control promoter light, run 1, well a	control promoter light, run 1, well b	uninduced reporter light, run 1, well a	Outcome
cag	DRSC07587	1.65e5	1.97e5	1.99e5	2.08e5	17570	inactive
CG12490	DRSC04123	2.29e5	2.00e5	2.20e5	1.93e5	17850	inactive
CG33124	DRSC00298	1.52e5	1.12e5	97310	1.04e5	9835	inactive
larp	DRSC14728	1.29e5	1.56e5	1.73e5	1.72e5	9525	inactive
larp	DRSC16984	97245	96375	1.29e5	1.15e5	11965	inactive
CG43317	DRSC15000	2.63e5	2.71e5	2.45e5	2.54e5	19360	inactive
stol	DRSC01956	1.35e5	1.31e5	1.59e5	1.61e5	9885	inactive
OXA1L	DRSC09672	68030	71520	54575	16455	5278	inactive
CG2975	DRSC00556	1.07e5	1.10e5	1.02e5	68535	10245	inactive
CG14567	DRSC11728	1.10e5	1.14e5	1.39e5	1.13e5	7605	inactive
CG9289	DRSC03187	1.34e5	1.56e5	1.03e5	1.47e5	22885	inactive
CG30345	DRSC05144	69970	81540	89820	1.25e5	4380	inactive
LManIII	DRSC03221	94685	1.41e5	87590	1.09e5	19500	inactive
CG13962	DRSC02304	87235	54545	63195	79590	2885	inactive
Arl4	DRSC17156	1.07e5	1.27e5	1.58e5	2.04e5	7805	inactive
CG33251 (retired record) + CG9915	DRSC20217	71455	74980	97740	70690	11982	inactive
salm	DRSC03606	97130	1.51e5	66745	1.03e5	15355	inactive
ppk16	DRSC02736	1.33e5	1.77e5	87075	1.06e5	21815	inactive
pn	DRSC18822	1.79e5	1.64e5	2.62e5	2.70e5	13820	inactive
Ir94e	DRSC15229	1.53e5	1.18e5	1.85e5	1.60e5	12528	inactive
RagC-D	DRSC07239	1.15e5	1.22e5	1.41e5	1.26e5	9410	inactive
ATPsynCF6L	DRSC08232	1.78e5	2.16e5	2.63e5	2.54e5	12190	inactive

The list goes on, starting with the last 4 of the part before.
target gene	dsRNA	induced reporter light, run 1, well a	induced reporter light, run 1, well b	control promoter light, run 1, well a	control promoter light, run 1, well b	uninduced reporter light, run 1, well a	Outcome
pn	DRSC18822	1.79e5	1.64e5	2.62e5	2.70e5	13820	inactive
Ir94e	DRSC15229	1.53e5	1.18e5	1.85e5	1.60e5	12528	inactive
RagC-D	DRSC07239	1.15e5	1.22e5	1.41e5	1.26e5	9410	inactive
ATPsynCF6L	DRSC08232	1.78e5	2.16e5	2.63e5	2.54e5	12190	inactive
Tig	DRSC03456	1.52e5	1.38e5	1.64e5	1.71e5	9905	inactive
Jhbp4	DRSC14222	2.39e5	2.14e5	2.35e5	2.18e5	18485	inactive
Tsp86D	DRSC15607	51810	64715	72480	48490	4260	inactive
tj	DRSC02011	31455	28775	42800	74705	2430	inactive
CG31019	DRSC13994	41335	54905	86365	75685	4955	active
CG32686	DRSC17645	59660	81650	72965	70850	5210	inactive
CG11790	DRSC14390	915	1538	1975	2350	90	active
Atg14	DRSC14421	1.65e5	1.55e5	2.26e5	2.48e5	11870	inactive
CG3164	DRSC00572	1.49e5	1.45e5	1.14e5	60810	12138	inactive
Ptp69D	DRSC11258	1.72e5	1.34e5	3.06e5	1.93e5	8350	inactive
CG6195	DRSC15989	1.98e5	1.91e5	1.88e5	1.86e5	14720	inactive
LManVI	DRSC03224	91465	1.02e5	64445	83340	16042	inactive
EMC6	DRSC14386	1.59e5	1.82e5	2.10e5	1.94e5	15705	inactive
CG13814 (retired record)	DRSC10069	67520	49320	44505	38125	3790	inactive
aub	DRSC03486	2.63e5	3.12e5	3.00e5	2.92e5	18792	inactive
CG30047	DRSC05340	1.70e5	1.56e5	2.26e5	2.90e5	18285	inactive
CG31867	DRSC03338	1.17e5	1.39e5	61125	87405	14885	inactive
CG14431	DRSC17925	1.25e5	1.23e5	2.31e5	2.11e5	8500	inactive
CG6294 + CG6299	DRSC19980	71060	63700	71315	73590	9870	inactive
CG2887	DRSC18235	1.10e5	94670	1.35e5	96350	7590	inactive
Atac1	DRSC03155	2.30e5	2.12e5	2.73e5	2.09e5	10730	inactive
CG4230	DRSC02740	1.46e5	1.59e5	1.51e5	1.72e5	14905	inactive
CG7768	DRSC10914	1.41e5	1.43e5	1.19e5	1.26e5	11500	inactive
CG32160 (retired record)	DRSC22904						inactive
CG44098	DRSC12214	1.63e5	1.06e5	1.15e5	85415	11815	inactive
CG44098	DRSC12327	37015	47180	46720	41950	3265	inactive
Toll-9	DRSC11776	67825	62325	90890	85670	5455	inactive
Nmda1	DRSC07479	1.61e5	1.46e5	1.33e5	1.26e5	12475	inactive
CG2875	DRSC18231	36105	49570	49705	43940	3445	inactive
Nubpl	DRSC03725	1.86e5	1.67e5	1.59e5	1.72e5	12940	inactive
CG31928	DRSC00293	2.06e5	2.08e5	2.19e5	2.11e5	20515	inactive
Rb97D	DRSC16815	2480	2270	5645	5138	370	inactive
CG32379	DRSC10318	1.72e5	1.25e5	1.48e5	1.24e5	8045	inactive
Acp26Aa	DRSC01855	1.73e5	1.37e5	1.75e5	1.52e5	10595	inactive
CG18135	DRSC10295	1.74e5	1.59e5	1.01e5	1.25e5	13370	inactive
brm	DRSC11330	61595	38560	51075	44540	2955	inactive
Stip1	DRSC00756	1.08e5	1.27e5	94885	1.01e5	11145	inactive
SMC2	DRSC07544	1.17e5	90590	81850	63290	8765	inactive
Ufd4	DRSC02871	83875	87115	40115	63560	11635	inactive
kmg	DRSC02829	1.49e5	1.39e5	1.27e5	1.28e5	11730	inactive
CG9184	DRSC08636	1.78e5	1.69e5	2.46e5	2.59e5	11250	inactive
CG9184	DRSC22184						inactive
